Source: PubChem BioAssay AID1487 (National Center for Advancing Translational Sciences (NCATS), 2009)
The list shows a part of the results. The main result of the screen is listed elsewhere. These columns were measured beside it and carry no call. Compounds called inactive in the main read-out are mostly missing here. The note in brackets gives the kind of curve behind each potency; many fits are weak.

Test: qHTS Assay for Modulators of Lamin A Splicing
Conditions: HeLa LMNA splicing GFP/RFP minigene ratio, 48 h
In short: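 S3 HeLa stable clones carrying a lamin A-EGFP splicing minigene plus DsRed2 were seeded at 600 cells/well in Opti-MEM with 2% FBS, pin-dosed and incubated 48 h at 37°C. Acumen cytometry (488 nm) gave the GFP/RFP total-intensity ratio.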

[1] = measured here: RFP viability control channel
[2] = measured here: GFP splicing reporter channel

| Compound | AC50 [1] | AC50 [2] |
| --- | --- | --- |
| Cc1ccc(/C=C/C(=O)c2ccccc(=O)c2O)c(C)c1 | 10 µM [rising, partial curve] |  |
| COc1ccc2[nH]c(C)c(CCNC(=S)Nc3cc(C)cc(C)c3)c2c1 | 31.6 µM [rising, single point] | 35.5 µM [rising, single point] |
| COc1ccc(-c2cccc(NS(=O)(=O)c3cc(C(F)(F)F)ccc3Cl)c2)nn1 | 11.2 µM [falling, partial curve, poor fit] | 7.08 µM [falling, full curve, poor fit] |
| Cn1cc(CCCC(=O)NCc2cccc(Br)c2)c2ccccc21 | 5.62 µM [rising, partial curve] | 10 µM [rising, partial curve] |
| Cc1ccc(C(O)c2nc3ccccc3n2C(C)C)cc1 (stereo not given) | 11.2 µM [rising, partial curve] |  |
| Nc1ccc(N2CCN(c3ccc(Cl)c(Cl)c3)CC2)cc1 | 15.8 µM [rising, single point] | 7.08 µM [rising, partial curve, poor fit] |
| O=C(CCc1ccccc1)N1CCc2c([nH]c3ccccc23)C1c1ccc(Cl)cc1 (stereo not given) |  | 3.98 µM [falling, full curve, poor fit] |
| CCc1ccccc1NC(=O)CSc1nc2ncccc2o1 |  | 14.1 µM [rising, single point] |
| CC(C)(C)c1nc(NCCN2CCOCC2)c2nnn(Cc3ccccc3Cl)c2n1 | 4.47 µM [rising, partial curve, poor fit] | 5.01 µM [rising, full curve, poor fit] |
| CCCCCc1ccc(OCCCC[n+]2cccc(C)c2)c(CCCCC)c1 | 0.158 µM [rising, full curve, poor fit] | 0.316 µM [rising, partial curve] |
| O=[n+]1cc(-c2ccc(Br)cc2)n([O-])c2c1CCC2 | 35.5 µM [rising, single point] | 35.5 µM [rising, single point] |
| CCNc1ncc2nc(-c3cccs3)c(=O)n(-c3ccccc3)c2n1 | 12.6 µM [falling, single point] | 12.6 µM [falling, single point] |
| Cc1c(NC(=O)COC(=O)C2(c3ccc(F)cc3)CCCC2)c(=O)n(-c2ccccc2)n1C | 0.02 µM [falling, full curve] | 0.0112 µM [falling, full curve] |
| Cc1ccc(NC(=O)CSC2=C(C#N)C(c3ccc4c(c3)OCO4)C3=C(CCCC3=O)N2)c(C)c1 (stereo not given) | 11.2 µM [rising, single point] | 11.2 µM [rising, single point] |
| CCCCOc1ccc(CN(C)c2ncnc(N)n2)cc1 | 14.1 µM [rising, partial curve] | 12.6 µM [rising, partial curve, poor fit] |
| O=C(Oc1c(Cl)cc(Cl)c2cccnc12)c1cccc([N+](=O)[O-])c1 | 11.2 µM [rising, partial curve] |  |
| CCCCCCCCCCCC(=O)NC1CCS(=O)(=O)C1 (stereo not given) |  | 10 µM [falling, partial curve, poor fit] |
| CCn1c2ccccc2c2cc(/C(C)=N/O)ccc21 | 1.58 µM [falling, partial curve, poor fit] | 2.24 µM [falling, partial curve, poor fit] |
| Cc1cccc(NC(=S)NCC23C=CC(O2)C2C(=O)N(c4ccc(Cl)cc4)C(=O)C23)c1 (stereo not given) | 12.6 µM [rising, single point] |  |
| Cc1c(C)n(Cc2ccccc2)c2ncnc(N)c12 |  | 11.2 µM [rising, single point] |
| COc1ccc(NC(=S)Nc2ccc(S(N)(=O)=O)cc2)c(OC)c1 |  | 12.6 µM [falling, partial curve, poor fit] |
| CN(C)c1ccc(-c2ccc3ncnc(NCc4ccccc4)c3c2)cc1 |  | 35.5 µM [falling, single point] |
| CCNc1ccc(S(=O)(=O)N(C)C)cc1NCC(=O)Nc1ccc(F)c(Cl)c1 | 12.6 µM [rising, partial curve] |  |
| CC(C)N(Cc1cn[nH]c1-c1ccc(-c2ccccc2)cc1)Cc1nccn1C | 0.00501 µM [falling, full curve, poor fit] | 0.00501 µM [falling, full curve, poor fit] |
| O=C(Nc1nc(-c2cccs2)cs1)c1ccc(Cl)s1 | 3.98 µM [rising, full curve, poor fit] |  |
| O=C(N/N=C/c1sc(N2CCOCC2)nc1-c1ccccc1)c1ccccc1O | 35.5 µM [rising, single point] |  |
| Cc1ccc(S(=O)(=O)c2cc3cc(Br)ccc3oc2=O)cc1 | 3.16 µM [rising, single point] |  |
| O=C(NC(=S)Nc1cccc(Cl)c1N1CCCCC1)c1ccc2c(c1)OCCO2 | 35.5 µM [falling, single point] | 35.5 µM [falling, single point] |

| Compound | AC50 [1] | AC50 [2] |
| --- | --- | --- |
| COc1ccc(CC(=O)Nc2ccc3nc(Nc4cccc(Cl)c4)cc(C)c3c2)cc1 | 35.5 µM [rising, single point] |  |
| CCCCCOC(=O)C1=C(C)Nc2ncnn2C1c1cccs1 (stereo not given) | 17.8 µM [rising, single point] |  |
| Cc1ccc(/C=N\NC(=O)Cc2cccn2C)o1 |  | 7.08 µM [rising, partial curve, poor fit] |
| Cc1nc(CS(=O)(=O)c2ccccc2)cc(Sc2ccc(Cl)cc2Cl)n1 | 35.5 µM [rising, single point] |  |
| Cc1ccc(C(=O)N2CCN(c3ccc(NC(=S)NC(=O)c4cccs4)cc3)CC2)cc1 | 8.91 µM [falling, partial curve, poor fit] | 8.91 µM [falling, partial curve, poor fit] |
| O=C(Nc1nc(-c2ccc(Cl)s2)cs1)c1ccncc1 | 3.16 µM [rising, full curve] | 1.41 µM [rising, partial curve, poor fit] |
| CCOC(=O)C1Sc2[nH]c(=O)sc2C(c2ccc(Cl)cc2)C1C(=O)OCC (stereo not given) | 8.91 µM [rising, partial curve] |  |
| NCCCC[C@@H]1NC(=O)[C@H](CCC(=O)O)NC(=O)c2cc([N+](=O)[O-])cc(I)c2NCC[C@@H](C(N)=O)NC1=O | 15.8 µM [rising, partial curve, poor fit] | 20 µM [rising, single point] |
| COc1ccc(-c2cc(C(=O)Nc3ccccc3N3CCOCC3)c3ccccc3n2)cc1OC | 7.08 µM [rising, partial curve] |  |
| Brc1ccc(CSc2ccc3nnc(-c4cccnc4)n3n2)cc1 |  | 25.1 µM [falling, partial curve] |
| CCOC(=O)c1ccccc1NC(=O)CSc1nc2ccccc2o1 | 12.6 µM [rising, single point] |  |
| COc1ccc(OC)c(NC(=O)c2c(NCc3ccc(OC)c(OC)c3)sc3c2CCC(C)C3)c1 (stereo not given) | 35.5 µM [falling, single point] |  |
| C[n+]1ccc(/C=C/c2c[nH]c3ccccc23)cc1 | 12.6 µM [rising, single point] |  |
| CN1CCN(C2(CNC(=O)c3ccc([N+](=O)[O-])cc3)CCCCC2)CC1 | 35.5 µM [rising, single point] |  |
| O=C(O)CNC(=O)C12CC3CC(CC(Cl)(C3)C1)C2 |  | 11.2 µM [falling, partial curve, poor fit] |
| N#CC(C#N)=C1C=C2C=C(N3CCCCCC3)CCC2CC1 (stereo not given) | 0.447 µM [falling, full curve] | 0.447 µM [falling, full curve] |
| NS(=O)(=O)c1ccc(NC(=O)COC(=O)COc2ccc(Cl)cc2)cc1 |  | 1.58 µM [rising, partial curve, poor fit] |
| COc1ccc(-n2c(C)nc3c(cnn3-c3ccccc3)c2=O)cc1 | 11.2 µM [rising, partial curve] |  |
| Cc1ccc(OCC(=O)Nc2ccc(S(=O)(=O)N3CCOCC3)cc2)c([N+](=O)[O-])n1 | 0.158 µM [falling, full curve, poor fit] |  |
| Cc1cccc(Cn2cc(S(=O)(=O)c3ccccc3)c(=O)c3cc(F)c(N4CCOCC4)cc32)c1 | 35.5 µM [falling, single point] | 35.5 µM [falling, single point] |
| Cc1cccc(NC(=O)CSc2cc(C(=O)c3nccn3C)c3ccccc3n2)c1 | 0.158 µM [rising, full curve, poor fit] |  |
| CCCc1nc2ccccc2n1CCc1ccccc1 | 17.8 µM [rising, single point] |  |
| CC1CC(Nc2ccccc2)c2ccccc2N1C(=O)c1cccnc1 (stereo not given) | 2 µM [rising, full curve, poor fit] |  |
| CC(Oc1ccc(Br)cc1)C(=O)Nc1ccncc1 (stereo not given) | 14.1 µM [rising, partial curve, poor fit] |  |
| O=C(OCCOCCO)c1ccccc1Nc1cccc(C(F)(F)F)c1 | 0.0501 µM [falling, full curve] | 0.0562 µM [falling, full curve] |
| CCOC(=O)c1oc2ccc(S(=O)(=O)n3nc(-c4ccc(OC)cc4)cc3N)cc2c1C | 10 µM [rising, partial curve] |  |
| CN(C)c1ccc(CNC(=O)Cc2ccc(NC(=O)N3CCCCc4ccccc43)cc2)cc1 |  | 0.355 µM [falling, full curve, poor fit] |

3 compounds drawn at random from the list so far:

| Compound | AC50 [1] | AC50 [2] |
| --- | --- | --- |
| Cn1cc(CCCC(=O)NCc2cccc(Br)c2)c2ccccc21 | 5.62 µM [rising, partial curve] | 10 µM [rising, partial curve] |
| CCNc1ccc(S(=O)(=O)N(C)C)cc1NCC(=O)Nc1ccc(F)c(Cl)c1 | 12.6 µM [rising, partial curve] |  |
| COc1ccc(-c2cc(C(=O)Nc3ccccc3N3CCOCC3)c3ccccc3n2)cc1OC | 7.08 µM [rising, partial curve] |  |
